Source: PubChem BioAssay AID256 (DTP/NCI, 2004)
The list is a part of this screen's results and no random one: it is rich in T/C values a quarter to a half above the control, in often repeated tests (any T/C) and in doses without a T/C. Other doses and runs of a compound stand elsewhere. T/C is the treated group as % of the vehicle group. Some entries give survivors of the animals treated and no T/C: the source holds a T/C of zero for them, seemingly a mark for toxic or unscored doses. Some survivor counts are full or nearly so, which does not show that the dose was tolerated: the source hardly ever lists a survival T/C far under the control, and the zero likely stands for such cases as well. Counts of survivors are from the toxicity check (mostly the fifth day) where no day follows; animals may have died later. Schedules are NCI's codes, read here as Q, the interval in days (D) or hours (H), X, the number of doses. Some entries were tested several times; their values stand side by side, smallest first. For survival time, the PubChem record calls one and a half times the control and up active, and a quarter to a half above the control has no call in these data; cut-offs in other NCI protocols can differ. Some T/C values are followed by the survivors on the day toxicity was checked, most often the fifth; where none is given, no animal had died by that day. Signs of the kind (2×) stand for listed records that agree.

Tested on: CD2F1 mice, L1210 leukemia ip, survival T/C
Assay: NCI In Vivo Anticancer Drug Screen. Data for tumor model L1210 Leukemia (intraperitoneal) in CD2F1 (CDF1) mice
Conditions: higher T/C = longer survival
Method in brief: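 Activity against a transplanted murine tumor was judged by comparing the compound group with a vehicle group. The outcome in the treated animals was divided by that in the controls.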

[1] = T/C endpoint: mean survival time, dose: 400.0 mg/kg/injection, schedule: Q04DX003 (ip), vehicle: saline with Tween-80

## CCC12CCC(=O)C=C1CCCC2=O (configuration not stated)
T/C endpoint: mean survival time, dose: 200.0 mg/kg/injection, schedule: Q04DX003 (ip), vehicle: saline sonified
  survivor count: 2 of 6
T/C endpoint: mean survival time, dose: 400.0 mg/kg/injection, schedule: Q04DX003 (ip), vehicle: saline sonified
  survivor count: 0 of 6

## O=C(O)CC1OCC=C2C[N+]3([O-])CCC45c6ccccc6NC4C1C2CC53 (configuration not stated)
T/C endpoint: mean survival time, dose: 300.0 mg/kg/injection, schedule: Q01DX001 (ip), vehicle: other
  survivor count: 0 of 6

## C=CCNc1ncnc2c1cnn2C
T/C endpoint: mean survival time, dose: 400.0 mg/kg/injection, schedule: Q04DX003 (ip), vehicle: saline
  survivor count: 3 of 6

## O=C(NN=C1CCCCC1)c1ccccc1
T/C endpoint: mean survival time, dose: 400.0 mg/kg/injection, schedule: Q01DX009 (ip), vehicle: saline with Tween-80
  survivor count: 0 of 6

## CC(O)C1OC(n2cnc3c(=S)nc[nH]c32)C(O)C1O (configuration not stated)
T/C endpoint: median survival time, dose: 25.0 mg/kg/injection, schedule: Q01DX005 (ip), vehicle: distilled water + Tween-80
  T/C: 125 % of control
T/C endpoint: median survival time, dose: 50.0 mg/kg/injection, schedule: Q01DX005 (ip), vehicle: distilled water + Tween-80
  T/C: 134, 137, 142 % of control
T/C endpoint: median survival time, dose: 100.0 mg/kg/injection, schedule: Q01DX005 (ip), vehicle: distilled water + Tween-80
  T/C: 137 and 146 % of control (2×)
T/C endpoint: median survival time, dose: 200.0 mg/kg/injection, schedule: Q01DX005 (ip), vehicle: distilled water + Tween-80
  T/C: 148 % of control

## Nc1ncnc2c1c(C(=O)NO)cn2C1OC(CO)C(O)C1O (configuration not stated)
T/C endpoint: mean survival time, dose: 12.5 mg/kg/injection, schedule: Q01DX001 (ip), vehicle: water
  T/C: 148 % of control
T/C endpoint: mean survival time, dose: 25.0 mg/kg/injection, schedule: Q01DX001 (ip), vehicle: water
  T/C: 146 % of control

## O=N[O-].[Co].[NH2-].[NH2-].[NH2-].[NH2-].[NH2-]
T/C endpoint: mean survival time, dose: 100.0 mg/kg/injection, schedule: Q01DX003 (ip), vehicle: saline
  survivor count: 2 of 6

## Nc1nc(N)c2cc(CCc3ccccc3)ccc2n1
T/C endpoint: mean survival time, dose: 100.0 mg/kg/injection, schedule: Q01DX009 (ip), vehicle: Klucel (hydroxypropylcellulose) (HPC)
  survivor count: 3 of 6
T/C endpoint: mean survival time, dose: 100.0 mg/kg/injection, schedule: Q04DX003 (ip), vehicle: saline with Tween-80
  survivor count: 1 of 6
T/C endpoint: mean survival time, dose: 200.0 mg/kg/injection, schedule: Q01DX009 (ip), vehicle: Klucel (hydroxypropylcellulose) (HPC)
  survivor count: 0 of 6
T/C endpoint: mean survival time, dose: 200.0 mg/kg/injection, schedule: Q04DX003 (ip), vehicle: saline with Tween-80
  survivor count: 1 of 6
[1]
  survivor count: 1 of 6

## O=[N+]([O-])c1ccc(N=Nc2ccc3c(c2)-c2ccccc2C3=P(c2ccccc2)(c2ccccc2)c2ccccc2)cc1
[1]
  survivor count: 2 of 6

## CCNC(C)(C)C(SSSC(c1ccc(C(F)(F)F)cc1)C(C)(C)NCC)c1ccc(C(F)(F)F)cc1 (configuration not stated)
T/C endpoint: mean survival time, dose: 200.0 mg/kg/injection, schedule: Q01DX009 (ip), vehicle: saline
  survivor count: 2 of 6
T/C endpoint: mean survival time, dose: 400.0 mg/kg/injection, schedule: Q01DX009 (ip), vehicle: saline
  survivor count: 0 of 6

## CN1C(=O)CC(c2ccc(NC(=O)N(CCCl)N=O)cc2)C1=O (configuration not stated)
T/C endpoint: mean survival time, dose: 3.13 mg/kg/injection, schedule: Q01DX001 (ip), vehicle: distilled water + Tween-80
  T/C: 136 % of control
T/C endpoint: mean survival time, dose: 6.25 mg/kg/injection, schedule: Q01DX001 (ip), vehicle: distilled water + Tween-80
  T/C: 143 % of control
T/C endpoint: mean survival time, dose: 50.0 mg/kg/injection, schedule: Q01DX001 (ip), vehicle: distilled water + Tween-80
  survivor count: 6 of 6
T/C endpoint: mean survival time, dose: 100.0 mg/kg/injection, schedule: Q01DX001 (ip), vehicle: distilled water + Tween-80
  survivor count: 2 of 6
T/C endpoint: mean survival time, dose: 200.0 mg/kg/injection, schedule: Q01DX001 (ip), vehicle: distilled water + Tween-80
  survivor count: 0 of 6

## O=C(CCl)Nc1ccc([N+](=O)[O-])cc1
T/C endpoint: mean survival time, dose: 100.0 mg/kg/injection, schedule: Q04DX002 (ip), vehicle: saline with Tween-80
  survivor count: 3 of 3
T/C endpoint: mean survival time, dose: 200.0 mg/kg/injection, schedule: Q04DX002 (ip), vehicle: saline with Tween-80
  survivor count: 3 of 3

## COc1ccc(S(=O)(=O)N=N/C=C2\C=CC=CN2O)cc1OC
T/C endpoint: median survival time, dose: 25.0 mg/kg/injection, schedule: Q01DX009 (ip), vehicle: saline with Tween-80
  T/C: 106, 108, 109, 111 % of control
T/C endpoint: median survival time, dose: 50.0 mg/kg/injection, schedule: Q01DX009 (ip), vehicle: saline with Tween-80
  T/C: 106, 109 [5 of 6 alive], 114, 118 % of control
T/C endpoint: median survival time, dose: 75.0 mg/kg/injection, schedule: Q01DX009 (ip), vehicle: saline with Tween-80
  T/C: 134 % of control
T/C endpoint: median survival time, dose: 100.0 mg/kg/injection, schedule: Q01DX009 (ip), vehicle: saline with Tween-80
  T/C: 125 and 137 % of control
T/C endpoint: median survival time, dose: 200.0 mg/kg/injection, schedule: Q01DX009 (ip), vehicle: saline with Tween-80
  survivor count: 0 of 6 and 1 of 6
